No constants are given. Whether binding was seen depends on the method and setting. In cells and extracts the contact can be indirect. Some results given as binding are weak or reduced against the parent protein; the word gives no strength.

By UniProt entry, the sequences of proteins in these tests, tags left out.
UniProt Q04206: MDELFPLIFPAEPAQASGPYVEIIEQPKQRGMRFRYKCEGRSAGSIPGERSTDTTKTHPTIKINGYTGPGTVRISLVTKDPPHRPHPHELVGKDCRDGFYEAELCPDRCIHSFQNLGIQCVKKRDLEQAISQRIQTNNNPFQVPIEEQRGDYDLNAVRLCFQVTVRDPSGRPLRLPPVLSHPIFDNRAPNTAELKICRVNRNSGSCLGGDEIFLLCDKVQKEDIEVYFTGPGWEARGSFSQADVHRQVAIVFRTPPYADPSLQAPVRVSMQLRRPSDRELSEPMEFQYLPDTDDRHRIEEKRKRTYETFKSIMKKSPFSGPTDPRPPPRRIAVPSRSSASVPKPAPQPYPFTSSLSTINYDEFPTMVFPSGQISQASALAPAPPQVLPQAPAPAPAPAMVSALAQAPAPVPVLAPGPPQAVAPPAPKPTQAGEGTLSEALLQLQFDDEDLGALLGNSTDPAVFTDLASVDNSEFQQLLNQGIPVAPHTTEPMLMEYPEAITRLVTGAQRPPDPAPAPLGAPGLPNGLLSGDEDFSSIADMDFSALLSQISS
UniProt P40763: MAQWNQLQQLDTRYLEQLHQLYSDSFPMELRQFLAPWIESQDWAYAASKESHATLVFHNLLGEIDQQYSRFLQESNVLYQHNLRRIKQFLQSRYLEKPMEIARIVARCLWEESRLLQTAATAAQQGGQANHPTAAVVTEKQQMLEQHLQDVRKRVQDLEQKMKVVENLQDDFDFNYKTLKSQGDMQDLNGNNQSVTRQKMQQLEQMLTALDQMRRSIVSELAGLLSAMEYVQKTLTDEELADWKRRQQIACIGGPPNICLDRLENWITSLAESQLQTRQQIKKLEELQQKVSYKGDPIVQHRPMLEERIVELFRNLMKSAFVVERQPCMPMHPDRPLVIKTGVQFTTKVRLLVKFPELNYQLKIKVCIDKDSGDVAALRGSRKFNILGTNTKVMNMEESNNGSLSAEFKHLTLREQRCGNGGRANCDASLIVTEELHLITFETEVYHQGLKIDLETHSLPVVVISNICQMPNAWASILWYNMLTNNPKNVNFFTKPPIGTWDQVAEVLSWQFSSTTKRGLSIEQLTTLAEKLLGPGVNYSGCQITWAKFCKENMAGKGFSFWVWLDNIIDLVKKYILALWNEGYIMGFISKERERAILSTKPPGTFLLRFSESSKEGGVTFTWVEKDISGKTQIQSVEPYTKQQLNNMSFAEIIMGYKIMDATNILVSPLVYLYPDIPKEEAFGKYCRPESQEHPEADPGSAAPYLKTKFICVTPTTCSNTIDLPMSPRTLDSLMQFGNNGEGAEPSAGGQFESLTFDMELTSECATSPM
UniProt P05412: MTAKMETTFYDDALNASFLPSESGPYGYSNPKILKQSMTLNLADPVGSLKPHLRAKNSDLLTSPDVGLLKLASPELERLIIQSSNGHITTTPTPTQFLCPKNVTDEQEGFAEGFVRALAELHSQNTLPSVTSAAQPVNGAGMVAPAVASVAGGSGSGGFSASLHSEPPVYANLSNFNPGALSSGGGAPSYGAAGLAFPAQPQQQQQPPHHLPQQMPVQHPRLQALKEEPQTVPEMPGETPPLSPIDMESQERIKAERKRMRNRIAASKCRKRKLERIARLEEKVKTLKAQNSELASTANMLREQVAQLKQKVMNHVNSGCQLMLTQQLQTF

The target in assay [1] is T1, Tumor necrosis factor receptor‐associated factor 4 (TRAF4), endogenous (human (endogenous in HCT116, MDA‐MB‐231, U‐87 MG, RKO, LM2‐4175, LN229)) (UniProt Q9BUZ4).
T1 sequence: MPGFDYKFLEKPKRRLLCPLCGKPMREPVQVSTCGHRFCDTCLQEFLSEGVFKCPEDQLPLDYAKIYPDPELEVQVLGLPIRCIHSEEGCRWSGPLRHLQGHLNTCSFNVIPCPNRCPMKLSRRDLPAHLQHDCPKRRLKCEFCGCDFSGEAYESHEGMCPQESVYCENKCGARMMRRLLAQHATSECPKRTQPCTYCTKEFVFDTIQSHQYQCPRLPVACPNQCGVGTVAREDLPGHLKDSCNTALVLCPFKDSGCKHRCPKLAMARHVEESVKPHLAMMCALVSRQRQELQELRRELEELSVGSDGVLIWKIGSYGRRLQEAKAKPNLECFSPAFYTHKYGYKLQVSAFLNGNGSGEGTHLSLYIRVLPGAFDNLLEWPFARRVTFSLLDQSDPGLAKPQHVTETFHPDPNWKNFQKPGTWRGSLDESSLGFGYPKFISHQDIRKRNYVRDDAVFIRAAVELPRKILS
Kind of assay: co-IP; lysates of HCT116, MDA‐MB‐231 and U‐87 MG cells; TRAF4 tested against transcription factors; antibodies on Protein A/G magnetic beads, 4 °C overnight; immunoblot (Figure 5B). Background: Immunoblotting shows a protein as a band on a membrane.

Assay [2] has as its target T2, TRAF4, exogenously expressed in HEK‐293T cells (UniProt Q9BUZ4).
T2 sequence: T1 sequence
Kind of assay: co-IP; exogenous TRAF4 and c‐Jun expressed in HEK‐293T cells; immunoblot (Figure 5C).

On to NF‐κB (from UniProt Q04206 1-551), for which, in assay [1], the binding entry is “no binding”.

As for STAT3 (from UniProt P40763 1-770), the binding entry in assay [1] is “no binding”.

Regarding “c‐Jun, endogenous (from UniProt P05412 1-331)”, in assay [1], the binding result is listed as “binds”.

Take “c‐Jun, exogenously expressed in HEK‐293T cells (from UniProt P05412 1-331)”: the binding entry in assay [2] is on record as “binds”.

The record behind these values is PMC11831473 (Advanced Science, 2024).
